# In article PMC7819943, “Rice protein-binding microarrays: a tool to detect cis-acting elements near promoter regions in rice”:
# Protein sequences, listed by entry. Tags and fused reporters are not part of them.
# UniProt Q0JBA9, entry or part of it: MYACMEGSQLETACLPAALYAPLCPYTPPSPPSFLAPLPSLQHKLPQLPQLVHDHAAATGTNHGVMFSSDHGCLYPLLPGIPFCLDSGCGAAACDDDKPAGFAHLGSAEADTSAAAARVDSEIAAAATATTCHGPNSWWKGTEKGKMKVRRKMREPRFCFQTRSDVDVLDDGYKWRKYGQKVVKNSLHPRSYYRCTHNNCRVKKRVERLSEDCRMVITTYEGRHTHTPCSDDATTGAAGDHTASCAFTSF
# This is one part of the list.
# Biological target: OsWRKY34 (Oryza sativa, UniProt Q0JBA9 1-250)
# Assay: protein-binding microarray (RPBM); PBS, 2% BSA, 51.3 ng/ul salmon testes DNA, 50 uM zinc acetate, 200 nM TF, 25 C, 1 h; high values mean tight binding
# Settings: protein: recombinant; tags: N-terminal polyhistidine and DsRed monomer fusion (pET32a); label: CyDye5-dUTP incorporated in the synthesized complementary strand; 3' TTTTT single-stranded linker to array surface; dsDNA, one strand shown
# Summary of the method: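 Transcription factors were made in E. coli BL21-CodonPlus as N-terminal fusions to a polyhistidine tag and DsRed, then purified on Ni–NTA. After primer extension with Cy5-dUTP and blocking with 2% BSA, a custom Agilent array was exposed for 1 h at 25 °C to 200 nM protein in PBS, 2% BSA, salmon testes DNA and 50 µM zinc acetate. Washed arrays were scanned on an Axon 4000B, and the binding signal is per-feature fluorescence intensity in arbitrary units.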
row,Sequence,binding signal
1,CTTTCTCATTCTGAATCATCCACAGTATGTCAAATTCTCACGGAGTCACCTAGTGCAG,9000 fluorescence intensity (a.u.)
2,GATGCAGATCGGTACTGCTGAACAGCTGACCACACTTGCTCGGAGTCACCTAGTGCAG,9260 fluorescence intensity (a.u.)
3,GCCCTGACCTGAGAGATGTTTGTTCTTGTTGATTTTTGTGCGGAGTCACCTAGTGCAG,10000 fluorescence intensity (a.u.)
4,CGTCATATCAGCGTCCCGATACAAATACCCACTTGATATACGGAGTCACCTAGTGCAG,9620 fluorescence intensity (a.u.)
5,ACTCACTTCAAAATTTTCACATCCTCTCTCATCATTTTTTCGGAGTCACCTAGTGCAG,11100 fluorescence intensity (a.u.)
6,CATATCTTCTCTTCCATTCCTTTTTTCTTGTGGAGAGTATCGGAGTCACCTAGTGCAG,9850 fluorescence intensity (a.u.)
7,CCTGCTCTCTCTCTCGTCCTCTTTATATCTGCAATTCTGCCGGAGTCACCTAGTGCAG,10500 fluorescence intensity (a.u.)
8,CTTGTGTTGTCTTCCGGTGCTTCTTCCATAATACAAAAACCGGAGTCACCTAGTGCAG,9120 fluorescence intensity (a.u.)
9,TAATAGGATTAAACTCTAATTTTTCACATCCCTACTTCTTCGGAGTCACCTAGTGCAG,8600 fluorescence intensity (a.u.)
10,CATTTGCCGCGCCTTATCCACCTCACCAAAACCCCACTTCCGGAGTCACCTAGTGCAG,8290 fluorescence intensity (a.u.)
11,CTGATTCGAACGCAGCCATAGTCACTCTTTCACTCTCACTCGGAGTCACCTAGTGCAG,11000 fluorescence intensity (a.u.)
12,AACTTGAGGTCCTGGCATTGACCTTTCTAAATTTTGACTGCGGAGTCACCTAGTGCAG,8160 fluorescence intensity (a.u.)
13,TTTACATCCTGCGTTCAAGGCCCTTCGCGTTAATACTATCCGGAGTCACCTAGTGCAG,9550 fluorescence intensity (a.u.)
14,ATTTACTATGCAATGCAGGTACATTTGTTTTACTTCACAACGGAGTCACCTAGTGCAG,8660 fluorescence intensity (a.u.)
15,AGCTGGCCGCCTTCTTGTCCTTGCCGTCCTCGTTCACCAGCGGAGTCACCTAGTGCAG,8280 fluorescence intensity (a.u.)
16,ACACCACACCAACTAGTCCAACCAATCCATCTATTTCTCTCGGAGTCACCTAGTGCAG,9910 fluorescence intensity (a.u.)
17,AATTTGGATTAATCCTTCGCGTCACATTTTCTACATCTCACGGAGTCACCTAGTGCAG,9980 fluorescence intensity (a.u.)
18,TTTGCCTATGTGGGTTTGAAATTTCTCATCAAATTGGTTCCGGAGTCACCTAGTGCAG,8780 fluorescence intensity (a.u.)
19,CTTTTTTACTGCGGTACATGTGTTCCCATGATGTTTCAATCGGAGTCACCTAGTGCAG,8240 fluorescence intensity (a.u.)
20,CCTCATGACCTACCGCCATCACTCGAGTCATTTAGCTTCTCGGAGTCACCTAGTGCAG,13600 fluorescence intensity (a.u.)
21,TATGCAGGTGTTGGGAGGAGGTGGCTTGATTTTTTCTGCTCGGAGTCACCTAGTGCAG,8530 fluorescence intensity (a.u.)

row,Sequence,binding signal
1,TTATCAATATCTCTCTCTCGGCGCGTATAGCCGTCGCGCGCGGAGTCACCTAGTGCAG,8690 fluorescence intensity (a.u.)
2,CATTTTATATAATTTTGACTATTTGCTAATCTTGTCTATACGGAGTCACCTAGTGCAG,9240 fluorescence intensity (a.u.)
3,CTCTTCCTCTCTCTATCTGTTCGTGGCTGGATCGGACGGACGGAGTCACCTAGTGCAG,8290 fluorescence intensity (a.u.)
4,AGGAGTACTCAGCTTTCTTTCTGCATGCTCTGTTTCTTCGCGGAGTCACCTAGTGCAG,9460 fluorescence intensity (a.u.)
5,AAATCCGCCGCCGAATTCCCCACCCGTCGCGTCCAAAATCCGGAGTCACCTAGTGCAG,8950 fluorescence intensity (a.u.)
6,GAAGTCAGCCCTCATGATGTGGATCCGTTTTGCATTGTAACGGAGTCACCTAGTGCAG,8310 fluorescence intensity (a.u.)
7,GTCGTCTCGTCTTCGTTATCTCCTCCCTGTGTCGCGGCGGCGGAGTCACCTAGTGCAG,9570 fluorescence intensity (a.u.)
8,TATATATATATATATATATATATATATATAACTACAATAGCGGAGTCACCTAGTGCAG,10200 fluorescence intensity (a.u.)
9,TGGATATGATATTCTTCCTTGGCTTATCCGTTCAGTTGCCCGGAGTCACCTAGTGCAG,9020 fluorescence intensity (a.u.)
10,CACTGTGTGCTACTCCAACTGCTAACCAAGCCACACCTTACGGAGTCACCTAGTGCAG,8250 fluorescence intensity (a.u.)
11,CTCCTCGCCCCGCATCAGCTTCGTCCGTCGCGGGCTCGCGCGGAGTCACCTAGTGCAG,9720 fluorescence intensity (a.u.)
12,TGTGATGCACTTCTCTCCAGTAATCTAGTGGTAATTTTCACGGAGTCACCTAGTGCAG,8020 fluorescence intensity (a.u.)
13,GGTGTGTTTTCTTGCATGACGGGTGTGTTTTCTCCTTAAACGGAGTCACCTAGTGCAG,11600 fluorescence intensity (a.u.)
14,GATTATCAGTGAAGCTTTTACCAAGATTGTGAAAATTTTCCGGAGTCACCTAGTGCAG,8200 fluorescence intensity (a.u.)
15,TTATCTTAATCTTGTCATCAATTCGTTTGTCTAAACTTCCCGGAGTCACCTAGTGCAG,11400 fluorescence intensity (a.u.)
16,TCTTTACCACTTCTTCTTAACTTCTACTCTATTGTTTTTTCGGAGTCACCTAGTGCAG,9670 fluorescence intensity (a.u.)
17,AACCTAAGCGCTTTTCCCTTTCGGGAAATTCCGCGCGCTCCGGAGTCACCTAGTGCAG,8060 fluorescence intensity (a.u.)
18,GGTGGTGCGGCCTCTCTCGCCTTTGATTTACCCTTTCGCGCGGAGTCACCTAGTGCAG,9720 fluorescence intensity (a.u.)
19,AAAATTTTTTTTGTCGGAATATATCCATGTGTGGTCTTGTCGGAGTCACCTAGTGCAG,8220 fluorescence intensity (a.u.)
20,CATCATTCGTCGTCAGGTTCTTCCGCCATTGGAGCTCCATCGGAGTCACCTAGTGCAG,9290 fluorescence intensity (a.u.)
21,CACGCTCCCTATTTTAGTACCACCTCGCGAACCGGAACGCCGGAGTCACCTAGTGCAG,9160 fluorescence intensity (a.u.)

row,Sequence,binding signal
1,TTAGTAATTACTCCACTGCGCCATCGATTACAATAATTTTCGGAGTCACCTAGTGCAG,11300 fluorescence intensity (a.u.)
2,GACCTGATCAACACCAGACGGGTTAACTACGTCTACATTTCGGAGTCACCTAGTGCAG,8210 fluorescence intensity (a.u.)
3,ATAGCAGCTCATCTCCATCTTCTTGCAAACCATCAGTAGTCGGAGTCACCTAGTGCAG,9370 fluorescence intensity (a.u.)
4,CACTCTTTTTGTTCTTCTACCTTTTCCTTTTGCTCTTCCCCGGAGTCACCTAGTGCAG,9130 fluorescence intensity (a.u.)
5,CCTCTTATAGCCCACCGCCACCGGCCGCCGCGCGCCCATGCGGAGTCACCTAGTGCAG,8050 fluorescence intensity (a.u.)
6,CTCTCTCTAGCTCTAGCTCTAGCTCGTCGCCGCCATGAACCGGAGTCACCTAGTGCAG,8320 fluorescence intensity (a.u.)
7,GATTTCCCCTTCTCTGCTGCAACCTGCATTGTTCTTTCCTCGGAGTCACCTAGTGCAG,10000 fluorescence intensity (a.u.)
8,CTCTCTCCGTGCAGTCATGATTTTCCGTACCTAACTTTTACGGAGTCACCTAGTGCAG,9610 fluorescence intensity (a.u.)
9,AATCGCACCCACCTGCCAAGTTCTTGTACCGCCAACGCAACGGAGTCACCTAGTGCAG,8560 fluorescence intensity (a.u.)
10,TGAGCCATGTTCCCGATCCACGGCTTACCTAACCTCGCTTCGGAGTCACCTAGTGCAG,8040 fluorescence intensity (a.u.)
11,GCCGCCGCCCTCCCCAACTCCGGCGACGACTATTCCCAAGCGGAGTCACCTAGTGCAG,8540 fluorescence intensity (a.u.)
12,CCACCACACGTCCGGAAAGTCTTTTTAGCACCTAGGCTGCCGGAGTCACCTAGTGCAG,8430 fluorescence intensity (a.u.)
13,CGGTCAAACATGTGCTAAAAAGTCAACGGTGTCAAATATTCGGAGTCACCTAGTGCAG,11400 fluorescence intensity (a.u.)
14,ACGCCCCGGATCTGAGAGAGTTGAGGTACATAGTTTTTTCCGGAGTCACCTAGTGCAG,8330 fluorescence intensity (a.u.)
15,TTTTTTTCCCACTATGTTTCCTGTTAAATGGATAGCACTACGGAGTCACCTAGTGCAG,8250 fluorescence intensity (a.u.)
16,AGCTCCGCCACCGCTTCATCTCGCACCCGCACCGCGCGCTCGGAGTCACCTAGTGCAG,9900 fluorescence intensity (a.u.)
17,GCTCCGGCTCCACCCGCCGGCGCCGCTGCTCCTGCCGCGGCGGAGTCACCTAGTGCAG,9760 fluorescence intensity (a.u.)
18,GTATACTGGTAGACACAGACTTTACACCGATTTTTTTCCTCGGAGTCACCTAGTGCAG,8560 fluorescence intensity (a.u.)
19,TGCCATACATATATAGTCGTAGTTCTTTTCTTTTTTTTAACGGAGTCACCTAGTGCAG,10900 fluorescence intensity (a.u.)
20,CCACCCGTTTATTGCATGTCATCTAAATGTTTTATGAAAACGGAGTCACCTAGTGCAG,10400 fluorescence intensity (a.u.)
21,ATCTTTCCTCTTTTTTTGTCTTTACAGAATGGCCATGTGGCGGAGTCACCTAGTGCAG,8240 fluorescence intensity (a.u.)

# Quoted from the listing:
# In binding signal, GAAGTCAGCCCTCATGATGTGGATCCGTTTTGCATTGTAACGGAGTCACCTAGTGCAG has the entry 8310 fluorescence intensity (a.u.)
# In binding signal, TGCCATACATATATAGTCGTAGTTCTTTTCTTTTTTTTAACGGAGTCACCTAGTGCAG has the entry 10900 fluorescence intensity (a.u.)
# In binding signal, TGAGCCATGTTCCCGATCCACGGCTTACCTAACCTCGCTTCGGAGTCACCTAGTGCAG has the entry 8040 fluorescence intensity (a.u.)

# Next part:

row,Sequence,binding signal
1,TCTTTCATACGGAATTCCTTTTCATTATTGGATGCCAGCTCGGAGTCACCTAGTGCAG,9330 fluorescence intensity (a.u.)
2,GTCTAAGGTTGTTTGAAAATTTCAAAAATTTAAAGTTTTTCGGAGTCACCTAGTGCAG,8100 fluorescence intensity (a.u.)
3,TGTGGCTGGGGTGGGAGTGGGAGCAGCCATAGATTTCCTCCGGAGTCACCTAGTGCAG,8930 fluorescence intensity (a.u.)
4,TGGTTTGCGCCGCCCGTCCGCCGCCGCCGGCGGCCGTACTCGGAGTCACCTAGTGCAG,9880 fluorescence intensity (a.u.)
5,GGGGATGGCGGCGGCCTCGGGAGGGGATGACGGTGGTCTCCGGAGTCACCTAGTGCAG,9080 fluorescence intensity (a.u.)
6,CTAATTGTTTTTTTAAATAGTGTTTTGTTTTATTGAAAACCGGAGTCACCTAGTGCAG,9040 fluorescence intensity (a.u.)
7,GTGGGCGGTGGGCAGCAAGAGAGGAGTTGGACAACGGTGACGGAGTCACCTAGTGCAG,9720 fluorescence intensity (a.u.)
8,CATCTTCGTGCGAGTTATTCTCATAGCCAATTTTCTCCTTCGGAGTCACCTAGTGCAG,8160 fluorescence intensity (a.u.)
9,AGTCATCTTTTTGCTTATGCTTATACTTATCAGCCAAAATCGGAGTCACCTAGTGCAG,8940 fluorescence intensity (a.u.)
10,GAGTTGTTTTTCCCCTCTGAATTTTCTTGGTTTGGATTTCCGGAGTCACCTAGTGCAG,8080 fluorescence intensity (a.u.)
11,TCTCCTTCCCCGCCGCCGCCGCTCGCCGCCCGCCCGCCCGCGGAGTCACCTAGTGCAG,8440 fluorescence intensity (a.u.)
12,TTTACAAACTTTCAACTTGTCATCACATCAAATCTTTCATCGGAGTCACCTAGTGCAG,8940 fluorescence intensity (a.u.)
13,TGCAGCCCCAGTAATGCTCTCTCAACCATGATTTGCCGCTCGGAGTCACCTAGTGCAG,11400 fluorescence intensity (a.u.)
14,CCGCCATTCCCGATCAAATCCTCTCCTCGATCTCTCCTGCCGGAGTCACCTAGTGCAG,11800 fluorescence intensity (a.u.)
15,TCGCCGCCACCAACATCACGCTCTTCCACCTCGACGTCGGCGGAGTCACCTAGTGCAG,8600 fluorescence intensity (a.u.)
16,GTGTTGTCTTGTTTACCAGATGCGCTGCAATCTGCAGTGACGGAGTCACCTAGTGCAG,8090 fluorescence intensity (a.u.)
17,ACAATAGCGTTGCATAGACCCATCCGTCGCTTCGCTTTCGCGGAGTCACCTAGTGCAG,8400 fluorescence intensity (a.u.)
18,AGTCTAAGTGGACTTTTTCCACCATTGTTTGCAAGTCTAGCGGAGTCACCTAGTGCAG,8260 fluorescence intensity (a.u.)
19,CACTGCTTTCACTGGAGACCAAAACTGGCTCTCTTTCACACGGAGTCACCTAGTGCAG,9580 fluorescence intensity (a.u.)
20,GGGAGGGAGGGTGGCTGTAGTGTGCTAATCACAAATAATTCGGAGTCACCTAGTGCAG,20500 fluorescence intensity (a.u.)
21,TTTCTTCCGCCGCATCCACGCTTGCTTCGCGAACGCCACACGGAGTCACCTAGTGCAG,9860 fluorescence intensity (a.u.)
